{"source": "paper PMC7985445", "about": "“Characterization of Plasmodium falciparum Pantothenate Kinase and Identification of Its Inhibitors From Natural Products” (Frontiers in Cellular and Infection Microbiology, 2021)", "tested_on": "Plasmodium falciparum sensitive strain 3D7", "assay": "P. falciparum asexual blood stage growth, diaphorase-coupled LDH assay", "type": "cell-based", "details": "ratio enzyme IC50 / parasite IC50", "data": [{"compound": "CC(=O)Oc1cccc2c(=O)c3c4c(c(=[N+]=[N-])c=3c(=O)c12)C(OC(C)=O)C(C)(OC(C)=O)C(OC(C)=O)C4OC(C)=O", "note": "(stereo not shown) [Diacetylkinamycin C]", "values": [{"measurement": "fold lower IC50 against P. falciparum cells compared to the PfPanK1 enzyme", "value": "> 10", "unit": "fold"}]}, {"compound": "OC[C@H]1O[C@@H](Oc2ccc(/C=C/c3cc(O)c4c(c3)O[C@H](c3ccc(O)cc3)[C@H]4c3cc(O)cc(O)c3)cc2)[C@H](O)[C@@H](O)[C@@H]1O", "note": "[Gnemonoside D]", "values": [{"measurement": "fold lower IC50 against P. falciparum cells compared to the PfPanK1 enzyme", "value": "> 10", "unit": "fold"}]}, {"compound": "COc1c2c(c(O)c3c(=O)c4c(oc13)[C@@H](O)CC[C@@H]4O)-c1c3c(c4cc(C)n(C)c(=O)c4c1O)OCO[C@H]3C2", "note": "[Simaomicin α]", "values": [{"measurement": "fold lower IC50 against P. falciparum cells compared to the PfPanK1 enzyme", "value": "> 10", "unit": "fold"}, {"measurement": "fold lower IC50 against P. falciparum cells compared to the PfPanK1 enzyme", "setting": "listed as simaomicin α", "value": "more than 10,000 fold"}]}]}
